# Assay results published in article PMC4161973.
# These are yes or no findings as the source states them, for the method shown. Tags and fused reporters may be left off the sequences shown.
# T1: GST-tagged Nmd5 (S. cerevisiae) (UniProt P46970)
# T1 sequence: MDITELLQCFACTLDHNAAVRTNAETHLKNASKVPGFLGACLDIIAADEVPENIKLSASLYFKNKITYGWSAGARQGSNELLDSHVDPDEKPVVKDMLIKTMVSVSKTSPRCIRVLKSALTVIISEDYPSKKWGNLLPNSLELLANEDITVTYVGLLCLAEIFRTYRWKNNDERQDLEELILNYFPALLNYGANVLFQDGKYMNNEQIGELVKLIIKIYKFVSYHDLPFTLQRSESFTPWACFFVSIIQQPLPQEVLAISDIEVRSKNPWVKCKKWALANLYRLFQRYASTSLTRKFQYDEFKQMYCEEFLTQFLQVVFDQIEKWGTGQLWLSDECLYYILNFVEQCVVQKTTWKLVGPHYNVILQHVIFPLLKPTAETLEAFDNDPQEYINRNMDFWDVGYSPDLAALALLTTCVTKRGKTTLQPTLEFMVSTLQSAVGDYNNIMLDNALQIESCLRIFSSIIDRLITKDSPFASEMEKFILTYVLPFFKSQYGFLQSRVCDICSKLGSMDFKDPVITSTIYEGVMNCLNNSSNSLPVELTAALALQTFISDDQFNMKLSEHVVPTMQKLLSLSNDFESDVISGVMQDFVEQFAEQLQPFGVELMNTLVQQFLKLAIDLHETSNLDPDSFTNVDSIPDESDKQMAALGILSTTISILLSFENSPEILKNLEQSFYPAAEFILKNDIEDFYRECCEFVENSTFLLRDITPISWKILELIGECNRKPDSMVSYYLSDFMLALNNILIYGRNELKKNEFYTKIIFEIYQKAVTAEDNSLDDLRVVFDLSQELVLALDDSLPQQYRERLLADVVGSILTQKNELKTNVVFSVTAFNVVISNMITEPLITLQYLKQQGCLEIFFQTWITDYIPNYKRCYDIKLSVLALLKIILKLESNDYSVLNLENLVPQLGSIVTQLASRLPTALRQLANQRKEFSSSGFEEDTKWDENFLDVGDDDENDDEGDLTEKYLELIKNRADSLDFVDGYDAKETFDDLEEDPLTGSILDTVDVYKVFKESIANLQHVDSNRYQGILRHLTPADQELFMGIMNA
# T2: GST-Pse1 (S. cerevisiae) (UniProt P32337)
# T2 sequence: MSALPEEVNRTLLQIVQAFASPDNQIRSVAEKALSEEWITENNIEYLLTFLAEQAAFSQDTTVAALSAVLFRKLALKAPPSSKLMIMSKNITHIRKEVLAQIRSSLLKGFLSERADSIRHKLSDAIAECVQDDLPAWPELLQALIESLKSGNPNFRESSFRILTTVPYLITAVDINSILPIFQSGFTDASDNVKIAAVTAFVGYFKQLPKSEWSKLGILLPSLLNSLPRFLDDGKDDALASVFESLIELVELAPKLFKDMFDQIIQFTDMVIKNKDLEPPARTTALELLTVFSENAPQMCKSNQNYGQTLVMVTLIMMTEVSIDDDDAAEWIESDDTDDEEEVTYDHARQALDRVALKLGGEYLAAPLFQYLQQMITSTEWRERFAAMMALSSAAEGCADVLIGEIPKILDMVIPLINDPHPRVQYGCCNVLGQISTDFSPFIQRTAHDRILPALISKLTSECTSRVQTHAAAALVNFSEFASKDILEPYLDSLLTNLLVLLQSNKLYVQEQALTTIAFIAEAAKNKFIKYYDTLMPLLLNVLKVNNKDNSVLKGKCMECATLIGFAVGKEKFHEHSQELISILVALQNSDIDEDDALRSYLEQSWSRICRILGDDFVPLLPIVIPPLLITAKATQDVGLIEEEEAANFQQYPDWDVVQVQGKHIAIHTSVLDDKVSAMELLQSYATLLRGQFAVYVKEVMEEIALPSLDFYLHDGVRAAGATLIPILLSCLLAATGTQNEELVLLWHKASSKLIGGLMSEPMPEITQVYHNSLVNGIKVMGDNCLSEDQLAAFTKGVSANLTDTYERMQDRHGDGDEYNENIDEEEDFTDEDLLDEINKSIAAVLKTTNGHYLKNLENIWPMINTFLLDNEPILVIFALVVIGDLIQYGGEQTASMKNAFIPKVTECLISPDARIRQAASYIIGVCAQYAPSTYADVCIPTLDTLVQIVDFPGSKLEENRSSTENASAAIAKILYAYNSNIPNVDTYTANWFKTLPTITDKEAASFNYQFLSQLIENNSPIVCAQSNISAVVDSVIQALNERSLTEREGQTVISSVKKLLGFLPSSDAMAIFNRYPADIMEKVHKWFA
# B1: Tsr2, purified recombinant (protein, UniProt Q06672 1-205)
# chain: MSTQYIDETAFVQAEQGKTNLMFSDEKQQARFELGVSMVIYKWDALDVAVENSWGGPDSAEKRDWITGIVVDLFKNEKVVDAALIEETLLYAMIDEFETNVEDDSALPIAVEVINIYNDCFNLNYNKVEKLYLEWQEKQRTKKSKRVVHIEGDDDEDDEDVEDYDDEDEDEEMDEVVPDLVSSKPEPIVDEDGFELVQPKGRRKH
# Legend:
# [1] = biological target: T1, GST-tagged Nmd5 (S. cerevisiae); test: pull-down; GST-importins immobilised on Glutathione Sepharose, incubated with purified 3.4 µM Tsr2 or 4 µM Tsr2:eS26 in PBSKMT with competing E. coli lysates for 1 hr at 4°C; Coomassie Blue staining or Western; both purified
# GST-Pse1 (S. cerevisiae) = biological target: T2, GST-Pse1 (S. cerevisiae); test: as above
binder,measurement,setting,value
B1,binding,[1],no binding (tested: 3.4 µM Tsr2)
same,binding,GST-Pse1 (S. cerevisiae),no binding (tested: 3.4 µM Tsr2)
